Among the data in PubChem BioAssay AID1508600 (Functional Genomics Laboratory (NCATS/FGL), 2020) are z-score values, retold here.

The campaign covered roughly 53,000 sequences. About 3,700 (7%) were called active.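 Rule for the calls: active = gene knockdowns whose robust z-score for IL-1 alpha signal is at least 2 or at most -2, so actives lie on both sides; inactive = the rest.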 This is one part of the list.

The nature of this experiment: Components of the Cytosolic LPS Sensing Pathway: Gene Identification via Genome-wide siRNA Screen.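 Note: robust z of the log signal after scaling to non-targeting control siRNA wells of the plate.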 As to conditions: RAW264.7 macrophages, IL-1a HTRF, actives lie on both sides, screened at 100 nM (by protocol), cells primed 5 h with Pam3CSK4 first. Put shortly: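 Read-out: IL-1a HTRF on supernatant, divided by plate negative-control median ×100, log-transformed and converted to robust z-score. Cells were RAW264.7 given 100 nM siRNA, Pam3CSK4-primed 5 hours, then LipidA-transfected 24 hour.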
Background: Time-resolved FRET reads energy transfer from a long-lived donor to a nearby acceptor.
Regarding GGAUCCAGAAAGUCCAGAUTT against Nt5c3b, the z-score is inactive: 0.918.
Take GGCGAACAACUGGAACGCATT against Snap25: the z-score is inactive: -0.839.
The figure for GGACUUCACAAGAGUAUUATT against She is inactive: 1.8; for GCAACUUACUUGAUCUGAATT against Ap2b1 it is inactive: -0.292; for GCGAUGAGACAGAUGUCGATT against Tcof1 it is inactive: -0.0757.
For the sequence GGUGAUUGAUGAGAUUUACTT against Fbxo28, the z-score is inactive: 0.288.
The same measure for GGUGACCUCUCAGAGGUACTT against Kctd14: inactive: 0.96.
The figure for GGUGAACUUGUGUCUCACUTT against Tango2 is inactive: 0.0582.
The same measure for GGCCAUUUACUUGAAGAACTT against Lpin3: inactive: -0.0508; for GGUUUGUGAAUCUUAUCUCTT against Las1l: inactive: 0.38.
With GCGCAUGUACAACACUCUATT against Abcf3, the z-score was inactive: -0.353.
The same measure for GGAGACUUUGAAAAAAGACTT against Mrps31: inactive: 0.5; for GGACAAGGAAUUAGGAGGATT against LOC626846: inactive: -0.858.
The same measure for GCCAAGUUUGAACUUCGGATT against Elovl6: inactive: 0.151; for CCUAGCCAGCUAUGAUGUCTT against Mcoln1: inactive: -1; for GGAAAACUGGACAGAAAAUTT against Ndufb4: inactive: -1.07.
The same measure for GCUUUUGCCAAGCAUAAUATT against Crot: inactive: -0.452; for CCAUUCAGAUCCUCUUCACTT against Olfr48: inactive: -1.08.
As to GCGAACACGAUUCAUUUAGTT against Suds3, the z-score was inactive: 0.903.
GGGAUCUUACAUGCCACCATT against Olfr1231: the z-score was inactive: -0.000779.
For GGACCUUGAGAAAGUAGUCTT against Ms4a10, the z-score was inactive: 0.651.
Take GGAGUGAUGUUCAUUCUGGTT against Tspan5: the z-score is inactive: -0.092.
In the case of GGACAAAAGAUGAAUGCUCTT against Msln, the z-score is inactive: -0.246.
For GGAGACGACUCCAUUCACATT against Thbs3, the z-score is inactive: -1.92.
Turning to CCCUAACAUCUCUUUGUUGTT against Slc15a3, the z-score is inactive: -0.095.
The same measure for CCUUUUACUGCUCACCGACTT against Sass6: inactive: 1.38; for GGUUGAAACGAGUUUUGAATT against Zbtb5: inactive: 0.00556; for GGACUUUGUCAACCAUGUCTT against Fbxl5: inactive: -0.0144.
Regarding GCCUGAUAUCAACAUAGGATT against Pth2r, the z-score was inactive: 0.802.
The figure for GCUUGUUUAGUAUACAGCCTT against Mterf4 is inactive: -0.373; for GGUAUUCUUCUGUCUAUGATT against Olfr1107 it is inactive: 0.452; for GGAUGUUGUUUAUCGAGGATT against Med21 it is inactive: -0.572.
For GGUAUGUCUGAUGCAUAGGTT against Mos, the z-score is inactive: 0.421.
In the case of GAGCCAAGUACCAUCUAUATT against Olfr389, the z-score is active: 2.28.
Take GGAGAAGAUAAAAUGGAUGTT against Ptbp2: the z-score is inactive: 0.675.
With CCUCAAUAUGAAUAAAGUGTT against Marchf1, the z-score was inactive: 0.0232.
The same measure for GGAAGUACAAUGCAAUCAATT against Obox3: inactive: -0.429; for CCUAGAGUACUAUUAAAAGTT against Srrm2: inactive: -1.12; for CCUGUGGAUCCAUUUGUUCTT against Tex15: active: -2.25.
The same measure for CCUAAAAACUCUGGAUUCUTT against Dennd6a: inactive: -0.0995; for GCAAAGUUGAGUGCACUUATT against Scrn1: inactive: -0.00924.
The figure for CCAUCAUGAACAGCCAGCUTT against Olfr463 is inactive: -0.44; for GGAAGAGAAUAGAUCCUAUTT against Zbtb8a it is inactive: -0.388.
GGAUCACCCAUACAGGAACTT against Pla2g2f: the z-score is active: -2.1.
The figure for CCAAGUCCUUCAUCGAAUATT against Kif1a is inactive: 1.4.
The figure for GGCCAAGAUUAGAUUGCUUTT against Senp2 is active: 2.57.
In the case of GGCUAUUGUUGGUAGAACUTT against Dek, the z-score is inactive: 0.441.
Consider GGAGCACAUGCUGAAGGAUTT against Wwc1, for which the z-score is inactive: 0.747.
On to GCACGGUCUUAUUGAGAGGTT against Zfp787, for which the z-score was inactive: 0.485.
On to GGAAGACAAUGGUGUGAAATT against Pgm3, for which the z-score is inactive: -0.74.
As to GGAUUUAACUCCAUUUCAATT against Tlr3, the z-score is inactive: 0.337.
The same measure for GGACAGUUUUAAAGAAGAATT against Tstd2: inactive: 1.05.
With GGGUAUUUCCACUUCAUAGTT against Acsm2, the z-score is inactive: 1.59.
The figure for GGUCUUGCUGUUCGAAGAATT against Gsx1 is inactive: 0.417; for GCCGUACCAUGUAAUGCCATT against Naa60 it is active: -2.05; for GCUGCUAUAUCUGAAAACATT against Wee2 it is inactive: -0.644.
Regarding GGCCGAGACUUCUCUUUUATT against Grin2c, the z-score was inactive: 0.803.
For GGAUCCAACAAAUGUUAUUTT against Ccdc92, the z-score was active: 2.06.
The figure for GGAAUAAGGAAGUUAUUGGTT against Olfr706 is inactive: -0.356; for GGGAAGAACUUCAAGCUUGTT against Ptk2b it is inactive: 0.668; for GGAUGGAGGAAGACUCGAUTT against Etv6 it is active: 2.14.
In the case of GGGAGCUGUUCUAUGAAGATT against Fhl3, the z-score is inactive: 0.00952.
GGACAUGUCUUCCCUGAAUTT against Hgs: the z-score was inactive: -1.66.
In the case of GGACCUCGAUACAAUGGUCTT against Gkn1, the z-score is inactive: -0.257.
Turning to GGACAACUUCUUCAUUGAGTT against Slc8a2, the z-score is inactive: -0.334.
The figure for GGAGUGCCUUUAGACAUGCTT against Tbpl2 is inactive: 0.306; for AACGUAAUUAGCGUGAAUUTT against Cyp2j11 it is inactive: 0.337; for GCACAUUCAACUUUGACCATT against Castor1 it is inactive: -1.99.
